Values from PubChem BioAssay AID652259 (Drosophila RNAi Screening Center, 2013)
Screen: 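Genome-wide hunt for genes that control Wingless pathway activity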 (primary screen). System: Drosophila clone 8 imaginal disc epithelial cells. Knock-down reagent: long dsRNA against Drosophila genes. Treatment: pathway stimulated by co-transfected Wingless expression plasmid. Measurement: 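Dual luciferase reads per well after Wingless plasmid stimulation: reporter firefly light and Renilla control light; activity is firefly divided by Renilla, a ratio not deposited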. Direction: firefly reporter light: higher = more Wg reporter light, before normalisation; Renilla control light: higher = more transfected or surviving cells. Call rule: 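a knock-down is a candidate when at least two out of four statistical tests show it departing from its plate mean; one test alone signals a weak candidate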. Calls: active = candidate regulator (raises or lowers reporter); inactive = not a candidate.
In all, the deposit lists about 22,000 reagents; below is a random part of those with a known target gene and a result. Over the whole deposit, 233 (1.1%) were called active. 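Light values are raw, unnormalised plate reads; the ratio scores behind the reporter calls were not deposited.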 Entries without a mark were called inactive. The numbers tell different reagents against one gene apart. A plus sign joins genes that one reagent is predicted to hit. Not stated in the record: the amount of reagent, the time to read-out, the dose of the treatment.

The opening 3 entries as a preview:
CG12278: firefly reporter light, replicate 1 = 12460; Renilla control light, replicate 1 = 3402
rdhB: firefly reporter light, replicate 1 = 1740; firefly reporter light, replicate 2 = 5616; Renilla control light, replicate 1 = 693; Renilla control light, replicate 2 = 1669
CG2258: firefly reporter light, replicate 1 = 1830; firefly reporter light, replicate 2 = 4151; Renilla control light, replicate 1 = 992; Renilla control light, replicate 2 = 1193

The list itself, repeating the preview:
CG12278: firefly reporter light, replicate 1 = 12460; Renilla control light, replicate 1 = 3402
rdhB: firefly reporter light, replicate 1 = 1740; firefly reporter light, replicate 2 = 5616; Renilla control light, replicate 1 = 693; Renilla control light, replicate 2 = 1669
CG2258: firefly reporter light, replicate 1 = 1830; firefly reporter light, replicate 2 = 4151; Renilla control light, replicate 1 = 992; Renilla control light, replicate 2 = 1193
CG32532 #1: firefly reporter light, replicate 1 = 19049; Renilla control light, replicate 1 = 11475
CG32532 #2: firefly reporter light, replicate 1 = 15755; Renilla control light, replicate 1 = 10195
CG32532 #3: firefly reporter light, replicate 1 = 20616; Renilla control light, replicate 1 = 12485
CG32532 #4: firefly reporter light, replicate 1 = 3.86e5; firefly reporter light, replicate 2 = 4.49e5; Renilla control light, replicate 1 = 1.76e5; Renilla control light, replicate 2 = 1.50e5
Jhbp12: firefly reporter light, replicate 1 = 9149; Renilla control light, replicate 1 = 11357
CG14965: firefly reporter light, replicate 1 = 8432; Renilla control light, replicate 1 = 3350
CG6106: firefly reporter light, replicate 1 = 19544; Renilla control light, replicate 1 = 8439
Tsp33B: firefly reporter light, replicate 1 = 2472; firefly reporter light, replicate 2 = 4901; Renilla control light, replicate 1 = 1030; Renilla control light, replicate 2 = 2667
Exo70: firefly reporter light, replicate 1 = 1315; firefly reporter light, replicate 2 = 3445; Renilla control light, replicate 1 = 875; Renilla control light, replicate 2 = 1952
DCTN4-p62: firefly reporter light, replicate 1 = 12265; Renilla control light, replicate 1 = 3456
asRNA:CR43159 + yellow-k: firefly reporter light, replicate 1 = 6258; Renilla control light, replicate 1 = 3328
Syx16: firefly reporter light, replicate 1 = 1685; firefly reporter light, replicate 2 = 5427; Renilla control light, replicate 1 = 1024; Renilla control light, replicate 2 = 2032
CG7544: firefly reporter light, replicate 1 = 5208; Renilla control light, replicate 1 = 1539
Gapvd1: firefly reporter light, replicate 1 = 11284; Renilla control light, replicate 1 = 6605
hh: firefly reporter light, replicate 1 = 19597; Renilla control light, replicate 1 = 17104
sns #1: firefly reporter light, replicate 1 = 2042; firefly reporter light, replicate 2 = 7196; Renilla control light, replicate 1 = 212; Renilla control light, replicate 2 = 620
sns #2: firefly reporter light, replicate 1 = 5898; firefly reporter light, replicate 2 = 11203; Renilla control light, replicate 1 = 1335; Renilla control light, replicate 2 = 4144
sns #3: firefly reporter light, replicate 1 = 6493; Renilla control light, replicate 1 = 1704
sns #4: firefly reporter light, replicate 1 = 3513; firefly reporter light, replicate 2 = 9741; Renilla control light, replicate 1 = 1044; Renilla control light, replicate 2 = 2971
sns #5: firefly reporter light, replicate 1 = 3227; firefly reporter light, replicate 2 = 7936; Renilla control light, replicate 1 = 832; Renilla control light, replicate 2 = 2524
sns #6: firefly reporter light, replicate 1 = 4560; firefly reporter light, replicate 2 = 12503; Renilla control light, replicate 1 = 363; Renilla control light, replicate 2 = 1056
Oatp26F #1: firefly reporter light, replicate 1 = 1654; firefly reporter light, replicate 2 = 5623; Renilla control light, replicate 1 = 689; Renilla control light, replicate 2 = 1228
Oatp26F #2: firefly reporter light, replicate 1 = 3060; firefly reporter light, replicate 2 = 5811; Renilla control light, replicate 1 = 754; Renilla control light, replicate 2 = 1152
Oatp26F #3: firefly reporter light, replicate 1 = 2208; firefly reporter light, replicate 2 = 6842; Renilla control light, replicate 1 = 871; Renilla control light, replicate 2 = 1195
